Measurements reported in PubChem BioAssay AID1259308 (NCATS, 2017)

- Test: 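Candidate targets for better recombinant protein yield in mammalian cells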 (primary screen)
- Cell system: human HEK293 embryonic kidney cells stably expressing firefly luciferase (HEK-CMV-Luc2-Hygro)
- Reagent: single siRNA against human genes, 0.8 pmol siRNA per well
- Timing: 72 h
- Measured: 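Reporter luminescence and viable-cell signal on separate replicate plates, given as percent of non-targeting control and median/MAD z-scores, plus per-cell luciferase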
- Direction: total luciferase, z-score: higher = more reporter protein produced
- Rule for the call: 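Active when the median/MAD z-score for overall luciferase is greater than 3; a gene was taken forward for validation with new siRNAs if at least two of its three siRNAs passed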
- Meaning of the calls: active = raised luciferase; inactive = no rise
Shown is one part, drawn at random, of about 59,000 reagents. About 1,510 of all reagents (2.6%) were called active. 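Calls use total luciferase alone and ignore viability, so some active siRNAs may act by altering cell number.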 Reagents against one gene are numbered here. Not all columns of the deposit are shown. Reagent sequences are not shown.

MAPK9 (GeneID 5601) #1 gave total luciferase, z-score -0.749; inactive.
For MAPK9 (GeneID 5601) #2, the values are total luciferase, z-score -0.628; inactive.
MAPK9 (GeneID 5601) #3 gave total luciferase, z-score 0.477; inactive.
Against CFAP144 (GeneID 440585) #1, the entry reads total luciferase, z-score -1.53; inactive.
Depletion of CFAP144 (GeneID 440585) #2 resulted in: total luciferase, z-score -0.771; inactive.
Knock-down of CFAP144 (GeneID 440585) #3 gave: total luciferase, z-score -0.52; inactive.
TCL1A (GeneID 8115) #1 showed total luciferase, z-score -0.735; inactive.
After knock-down of TCL1A (GeneID 8115) #2, the record shows total luciferase, z-score -0.45; inactive.
With knock-down of TCL1A (GeneID 8115) #3 the results were total luciferase, z-score -1.63; inactive.
Depletion of TPPP3 (GeneID 51673) #1 gave: total luciferase, z-score 0.235; inactive.
For TPPP3 (GeneID 51673) #2, the values are total luciferase, z-score -0.0778; inactive.
With knock-down of TPPP3 (GeneID 51673) #3 the results were total luciferase, z-score -1.26; inactive.
For MGAT5 (GeneID 4249) #1, the values are total luciferase, z-score 2.53; inactive.
Silencing of MGAT5 (GeneID 4249) #2 gave: total luciferase, z-score -0.281; inactive.
After knock-down of MGAT5 (GeneID 4249) #3, the screen gave total luciferase, z-score 0.25; inactive.
After knock-down of IGSF1 (GeneID 3547) #1 the results were total luciferase, z-score -1.47; inactive.
For IGSF1 (GeneID 3547) #2, the values are total luciferase, z-score -1; inactive.
Depletion of IGSF1 (GeneID 3547) #3 came out at: total luciferase, z-score -0.0395; inactive.
Depletion of NPC2 (GeneID 10577) #1 gave: total luciferase, z-score -0.166; inactive.
NPC2 (GeneID 10577) #2 gave total luciferase, z-score -0.112; inactive.
Depletion of NPC2 (GeneID 10577) #3 resulted in: total luciferase, z-score -0.644; inactive.

Part of the list above in another layout:
{"Target gene": "CFAP144 (GeneID 440585)", "reagent": 2, "total luciferase, z-score": -0.771, "Outcome": "inactive"}
{"Target gene": "CFAP144 (GeneID 440585)", "reagent": 3, "total luciferase, z-score": -0.52, "Outcome": "inactive"}
{"Target gene": "TCL1A (GeneID 8115)", "reagent": 1, "total luciferase, z-score": -0.735, "Outcome": "inactive"}
{"Target gene": "TCL1A (GeneID 8115)", "reagent": 2, "total luciferase, z-score": -0.45, "Outcome": "inactive"}
{"Target gene": "TCL1A (GeneID 8115)", "reagent": 3, "total luciferase, z-score": -1.63, "Outcome": "inactive"}

Further entries follow:
For STRIP1 (GeneID 85369) #1 the deposit lists total luciferase, z-score -0.095; inactive.
For STRIP1 (GeneID 85369) #2, the values are total luciferase, z-score 0.857; inactive.
STRIP1 (GeneID 85369) #3 showed total luciferase, z-score 0.912; inactive.
For SRGAP2C (GeneID 653464) #1, the entry reads total luciferase, z-score 1.63; inactive.
Silencing of SRGAP2C (GeneID 653464) #2 gave: total luciferase, z-score 0.18; inactive.
After knock-down of SRGAP2C (GeneID 653464) #3, the record shows total luciferase, z-score -0.587; inactive.
DGKE (GeneID 8526) #1 gave total luciferase, z-score 0.945; inactive.
DGKE (GeneID 8526) #2 showed total luciferase, z-score 0.208; inactive.
DGKE (GeneID 8526) #3 showed total luciferase, z-score -0.883; inactive.
EXO1 (GeneID 9156) #1 scored total luciferase, z-score -1.3; inactive.
With knock-down of EXO1 (GeneID 9156) #2 the results were total luciferase, z-score 0.201; inactive.
EXO1 (GeneID 9156) #3 scored total luciferase, z-score 1.89; inactive.
